# Assay results: the supplement of paper PMC12067093, “Discovery and optimisation of a covalent ligand for TRIM25 and its application to targeted protein ubiquitination” (Chemical Science, 2025)
# Protein sequences, listed by entry. Tags and fused reporters are not part of them. Lines headed by an entry give the natural chain unless they say otherwise; changes in a name come on top.
# UniProt Q9Y4E8: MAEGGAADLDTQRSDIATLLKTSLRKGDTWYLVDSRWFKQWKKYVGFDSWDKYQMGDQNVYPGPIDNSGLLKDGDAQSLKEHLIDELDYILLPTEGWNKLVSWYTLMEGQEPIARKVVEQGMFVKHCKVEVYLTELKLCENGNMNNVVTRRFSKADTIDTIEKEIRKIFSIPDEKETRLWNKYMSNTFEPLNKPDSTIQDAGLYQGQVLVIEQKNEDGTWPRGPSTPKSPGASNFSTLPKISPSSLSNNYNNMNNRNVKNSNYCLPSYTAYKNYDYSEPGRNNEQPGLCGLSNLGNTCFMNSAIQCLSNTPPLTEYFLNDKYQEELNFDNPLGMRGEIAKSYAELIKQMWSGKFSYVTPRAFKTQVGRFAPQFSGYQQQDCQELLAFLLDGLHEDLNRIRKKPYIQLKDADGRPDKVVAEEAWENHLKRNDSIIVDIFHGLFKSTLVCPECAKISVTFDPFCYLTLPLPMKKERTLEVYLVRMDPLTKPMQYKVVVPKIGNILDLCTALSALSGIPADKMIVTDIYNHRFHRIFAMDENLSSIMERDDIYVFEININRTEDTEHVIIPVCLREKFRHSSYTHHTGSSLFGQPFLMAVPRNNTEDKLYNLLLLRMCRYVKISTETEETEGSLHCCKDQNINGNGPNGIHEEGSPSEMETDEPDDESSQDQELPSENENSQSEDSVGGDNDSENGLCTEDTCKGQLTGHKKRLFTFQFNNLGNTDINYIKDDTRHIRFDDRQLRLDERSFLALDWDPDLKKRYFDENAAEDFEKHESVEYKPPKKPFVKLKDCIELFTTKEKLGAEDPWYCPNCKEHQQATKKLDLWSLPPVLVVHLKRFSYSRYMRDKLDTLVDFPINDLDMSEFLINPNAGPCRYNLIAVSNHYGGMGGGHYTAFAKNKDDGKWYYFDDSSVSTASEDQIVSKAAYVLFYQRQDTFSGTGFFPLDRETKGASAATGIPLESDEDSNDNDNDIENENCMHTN
# UniProt Q9Y3C8: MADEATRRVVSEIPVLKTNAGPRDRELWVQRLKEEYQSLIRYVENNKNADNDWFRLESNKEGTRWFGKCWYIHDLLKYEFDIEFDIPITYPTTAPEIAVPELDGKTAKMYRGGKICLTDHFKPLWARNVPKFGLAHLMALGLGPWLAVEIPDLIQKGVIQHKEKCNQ
# UniProt O60763: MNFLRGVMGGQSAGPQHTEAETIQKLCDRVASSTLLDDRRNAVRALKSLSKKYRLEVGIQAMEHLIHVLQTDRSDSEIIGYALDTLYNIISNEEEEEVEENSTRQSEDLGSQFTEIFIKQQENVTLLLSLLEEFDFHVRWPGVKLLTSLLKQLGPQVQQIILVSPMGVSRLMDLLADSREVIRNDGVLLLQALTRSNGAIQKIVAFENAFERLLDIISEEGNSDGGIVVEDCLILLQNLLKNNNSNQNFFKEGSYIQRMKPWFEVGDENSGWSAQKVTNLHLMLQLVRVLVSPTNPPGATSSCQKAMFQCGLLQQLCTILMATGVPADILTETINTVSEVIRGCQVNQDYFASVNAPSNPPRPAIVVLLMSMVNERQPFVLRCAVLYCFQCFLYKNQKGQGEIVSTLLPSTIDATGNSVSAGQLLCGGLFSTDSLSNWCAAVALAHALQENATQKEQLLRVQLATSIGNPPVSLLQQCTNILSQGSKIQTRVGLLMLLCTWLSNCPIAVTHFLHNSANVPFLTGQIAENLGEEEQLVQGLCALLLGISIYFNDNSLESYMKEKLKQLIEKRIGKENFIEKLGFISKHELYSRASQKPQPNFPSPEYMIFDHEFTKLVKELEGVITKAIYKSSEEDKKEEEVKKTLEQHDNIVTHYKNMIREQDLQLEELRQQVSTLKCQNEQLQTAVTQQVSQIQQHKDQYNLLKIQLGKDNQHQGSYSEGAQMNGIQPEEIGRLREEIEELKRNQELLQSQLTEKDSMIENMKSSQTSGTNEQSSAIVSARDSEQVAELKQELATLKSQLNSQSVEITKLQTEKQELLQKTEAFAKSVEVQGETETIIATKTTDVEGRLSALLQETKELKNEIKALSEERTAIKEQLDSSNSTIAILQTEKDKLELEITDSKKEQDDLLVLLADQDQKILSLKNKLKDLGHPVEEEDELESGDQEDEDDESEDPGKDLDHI
# UniProt O60701: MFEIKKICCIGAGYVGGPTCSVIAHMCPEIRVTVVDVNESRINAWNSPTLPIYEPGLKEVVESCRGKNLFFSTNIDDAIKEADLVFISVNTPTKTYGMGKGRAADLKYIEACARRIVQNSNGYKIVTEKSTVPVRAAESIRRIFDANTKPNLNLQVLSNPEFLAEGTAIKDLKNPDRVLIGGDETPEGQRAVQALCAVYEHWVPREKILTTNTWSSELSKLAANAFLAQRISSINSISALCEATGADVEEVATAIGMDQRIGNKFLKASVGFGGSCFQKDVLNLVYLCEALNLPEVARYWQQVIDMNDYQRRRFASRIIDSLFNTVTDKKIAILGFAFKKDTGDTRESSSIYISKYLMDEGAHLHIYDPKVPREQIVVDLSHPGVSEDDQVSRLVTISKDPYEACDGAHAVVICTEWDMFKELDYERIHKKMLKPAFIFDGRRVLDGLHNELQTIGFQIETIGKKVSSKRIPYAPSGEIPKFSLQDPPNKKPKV
# UniProt P07919: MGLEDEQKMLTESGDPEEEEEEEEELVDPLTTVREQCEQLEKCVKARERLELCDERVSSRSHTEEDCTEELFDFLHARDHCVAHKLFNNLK
# UniProt O94966: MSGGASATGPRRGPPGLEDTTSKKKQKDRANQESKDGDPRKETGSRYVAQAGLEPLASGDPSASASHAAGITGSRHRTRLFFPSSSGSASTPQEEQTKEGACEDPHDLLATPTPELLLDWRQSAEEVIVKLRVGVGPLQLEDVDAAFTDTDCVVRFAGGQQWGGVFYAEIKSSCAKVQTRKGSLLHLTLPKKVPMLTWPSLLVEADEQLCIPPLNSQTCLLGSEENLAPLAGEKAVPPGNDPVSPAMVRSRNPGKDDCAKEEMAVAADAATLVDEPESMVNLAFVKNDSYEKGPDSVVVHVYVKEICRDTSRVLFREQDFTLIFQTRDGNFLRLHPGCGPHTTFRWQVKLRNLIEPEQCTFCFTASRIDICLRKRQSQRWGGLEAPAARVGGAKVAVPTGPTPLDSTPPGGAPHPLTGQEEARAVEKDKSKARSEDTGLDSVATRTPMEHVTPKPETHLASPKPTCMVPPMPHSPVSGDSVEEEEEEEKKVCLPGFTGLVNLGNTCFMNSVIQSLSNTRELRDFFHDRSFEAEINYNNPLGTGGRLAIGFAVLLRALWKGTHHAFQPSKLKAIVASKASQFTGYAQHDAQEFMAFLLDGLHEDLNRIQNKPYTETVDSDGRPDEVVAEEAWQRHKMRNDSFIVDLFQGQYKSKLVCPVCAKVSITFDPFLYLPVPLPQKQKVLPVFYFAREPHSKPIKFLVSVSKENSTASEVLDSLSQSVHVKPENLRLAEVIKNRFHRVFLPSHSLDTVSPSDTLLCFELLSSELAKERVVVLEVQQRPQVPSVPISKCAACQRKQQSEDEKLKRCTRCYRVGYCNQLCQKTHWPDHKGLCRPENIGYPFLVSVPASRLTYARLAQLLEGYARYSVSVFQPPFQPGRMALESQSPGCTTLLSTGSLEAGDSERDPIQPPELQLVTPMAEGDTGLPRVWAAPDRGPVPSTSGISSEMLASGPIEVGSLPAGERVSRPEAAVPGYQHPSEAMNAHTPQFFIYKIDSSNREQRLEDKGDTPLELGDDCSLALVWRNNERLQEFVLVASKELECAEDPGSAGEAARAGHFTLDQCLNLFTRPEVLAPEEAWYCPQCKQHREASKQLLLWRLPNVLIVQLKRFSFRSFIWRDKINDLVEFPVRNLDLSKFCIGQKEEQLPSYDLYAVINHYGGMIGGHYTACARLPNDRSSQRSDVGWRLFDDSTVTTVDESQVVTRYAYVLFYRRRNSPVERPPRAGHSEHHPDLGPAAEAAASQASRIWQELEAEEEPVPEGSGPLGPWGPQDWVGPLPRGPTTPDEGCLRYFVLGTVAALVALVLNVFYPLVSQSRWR
# UniProt A6NIH7: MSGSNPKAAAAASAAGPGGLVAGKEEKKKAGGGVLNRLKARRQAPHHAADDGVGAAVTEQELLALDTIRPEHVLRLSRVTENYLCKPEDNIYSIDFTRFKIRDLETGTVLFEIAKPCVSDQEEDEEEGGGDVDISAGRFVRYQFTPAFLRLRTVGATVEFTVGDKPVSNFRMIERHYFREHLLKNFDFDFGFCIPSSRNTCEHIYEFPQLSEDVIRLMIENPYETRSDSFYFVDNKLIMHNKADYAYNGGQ
# UniProt Q8N806: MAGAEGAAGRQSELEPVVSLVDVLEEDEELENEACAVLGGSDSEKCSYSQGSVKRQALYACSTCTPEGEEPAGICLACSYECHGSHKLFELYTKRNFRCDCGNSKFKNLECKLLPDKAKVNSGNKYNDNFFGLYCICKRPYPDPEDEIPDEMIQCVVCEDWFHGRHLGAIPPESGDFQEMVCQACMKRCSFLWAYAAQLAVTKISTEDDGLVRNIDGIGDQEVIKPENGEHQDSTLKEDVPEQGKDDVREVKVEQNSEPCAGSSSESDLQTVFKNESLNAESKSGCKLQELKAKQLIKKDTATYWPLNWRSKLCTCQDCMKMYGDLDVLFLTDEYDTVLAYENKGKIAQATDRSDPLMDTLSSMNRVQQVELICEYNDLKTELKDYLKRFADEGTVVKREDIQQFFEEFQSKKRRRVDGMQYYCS
# UniProt Q92900: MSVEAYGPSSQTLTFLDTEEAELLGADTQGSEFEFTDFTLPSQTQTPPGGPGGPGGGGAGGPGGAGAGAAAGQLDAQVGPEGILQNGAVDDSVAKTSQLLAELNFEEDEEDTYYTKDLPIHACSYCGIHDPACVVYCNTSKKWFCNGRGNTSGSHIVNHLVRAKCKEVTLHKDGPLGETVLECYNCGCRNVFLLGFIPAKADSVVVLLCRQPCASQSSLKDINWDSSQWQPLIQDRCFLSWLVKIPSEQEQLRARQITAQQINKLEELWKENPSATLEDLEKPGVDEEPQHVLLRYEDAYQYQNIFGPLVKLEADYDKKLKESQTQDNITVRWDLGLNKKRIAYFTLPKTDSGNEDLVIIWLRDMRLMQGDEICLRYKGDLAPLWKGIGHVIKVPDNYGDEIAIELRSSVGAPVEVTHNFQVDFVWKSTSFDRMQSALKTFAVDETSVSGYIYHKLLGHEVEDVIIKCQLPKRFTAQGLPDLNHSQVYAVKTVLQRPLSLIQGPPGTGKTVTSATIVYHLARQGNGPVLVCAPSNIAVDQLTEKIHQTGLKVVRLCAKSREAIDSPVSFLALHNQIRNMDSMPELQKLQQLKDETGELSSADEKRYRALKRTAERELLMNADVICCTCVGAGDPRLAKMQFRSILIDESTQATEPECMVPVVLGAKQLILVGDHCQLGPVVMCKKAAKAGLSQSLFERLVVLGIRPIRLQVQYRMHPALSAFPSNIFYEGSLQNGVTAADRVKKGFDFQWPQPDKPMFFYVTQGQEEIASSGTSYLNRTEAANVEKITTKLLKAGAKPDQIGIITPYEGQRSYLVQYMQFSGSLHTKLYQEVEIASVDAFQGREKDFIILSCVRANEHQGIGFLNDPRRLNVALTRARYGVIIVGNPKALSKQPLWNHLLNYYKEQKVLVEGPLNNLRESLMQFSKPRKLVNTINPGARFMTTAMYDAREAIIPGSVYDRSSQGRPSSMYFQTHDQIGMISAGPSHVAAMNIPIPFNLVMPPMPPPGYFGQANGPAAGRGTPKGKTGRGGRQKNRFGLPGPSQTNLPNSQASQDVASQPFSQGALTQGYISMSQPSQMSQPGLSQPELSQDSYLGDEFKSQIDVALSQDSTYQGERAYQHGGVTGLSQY
# UniProt P10746: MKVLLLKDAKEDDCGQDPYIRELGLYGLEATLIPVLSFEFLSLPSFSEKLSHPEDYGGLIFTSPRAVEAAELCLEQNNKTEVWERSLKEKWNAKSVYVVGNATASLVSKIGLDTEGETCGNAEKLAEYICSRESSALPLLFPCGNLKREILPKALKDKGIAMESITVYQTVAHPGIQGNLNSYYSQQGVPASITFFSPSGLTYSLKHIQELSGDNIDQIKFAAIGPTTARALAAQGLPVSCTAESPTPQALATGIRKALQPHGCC
# UniProt P54578: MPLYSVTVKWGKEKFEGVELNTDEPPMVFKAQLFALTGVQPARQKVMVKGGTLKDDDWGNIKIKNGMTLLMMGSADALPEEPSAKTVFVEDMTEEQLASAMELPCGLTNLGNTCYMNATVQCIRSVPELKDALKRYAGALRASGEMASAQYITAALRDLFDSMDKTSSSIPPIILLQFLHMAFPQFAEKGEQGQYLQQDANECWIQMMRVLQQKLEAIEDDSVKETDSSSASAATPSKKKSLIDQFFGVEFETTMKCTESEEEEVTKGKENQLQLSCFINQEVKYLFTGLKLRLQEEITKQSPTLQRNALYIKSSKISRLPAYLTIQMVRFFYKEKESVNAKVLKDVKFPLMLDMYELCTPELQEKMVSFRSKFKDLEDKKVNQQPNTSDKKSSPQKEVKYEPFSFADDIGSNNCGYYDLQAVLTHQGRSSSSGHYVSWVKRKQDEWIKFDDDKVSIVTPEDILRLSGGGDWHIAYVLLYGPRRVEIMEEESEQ
# This is one part of the list.
# Compound: Cc1cc(ccc1-c1ccccc1)C(=O)N1CCCN(CC1)C(=O)CCl [compound 10]
# Assay: probe-labelled cysteine peptide fold change vs DMSO (competition) (log2 fold change); higher = less target engagement (more negative = stronger competition)
# Conditions: 50 µM; THP-1; incubation time: 4 h
# 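Further: competitive profiling in live THP-1 cells: cysteine peptides tagged with an iodoacetamide desthiobiotin (IA-DTB) probe, intensity after compound treatment relative to DMSO-treated cells.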
row,Target,probe-labelled cysteine peptide fold change
1,UNC45A_Q9H3U1_118_CVSLEPK (UniProt Q9H3U1),-0.144
2,USP15_Q9Y4E8_791_DCIELFTTK (UniProt Q9Y4E8),-0.0515
3,UNC13D_Q70J99_505_ALLGLVQDVIGDLHQCQR (UniProt Q70J99),0.285
4,UQCRC1_P31930_268_HLGGIPWTYAEDAVPTLTPCR (UniProt P31930),-0.0825
5,UBXN7_O94888_38_HMLEACNNNLEMAVTMFLDGGGIAEEPSTSSASVSTVRPHTEEEVR (UniProt O94888),0.00125
6,UFC1_Q9Y3C8_116_ICLTDHFK (UniProt Q9Y3C8),-0.226
7,USO1_O60763_383_CAVLYCFQCFLYK (UniProt O60763),0.419
8,UGDH_O60701_9+20_ICCIGAGYVGGPTCSVIAHMCPEIR (UniProt O60701),0.0457
9,UROD_P06132_308_TVTLQGNLDPCALYASEEEIGQLVK (UniProt P06132),0.0622
10,UQCRH_P07919_67_SHTEEDCTEELFDFLHAR (UniProt P07919),-0.247
11,UIMC1_Q96RL1_298_VILCQLEVYQK (UniProt Q96RL1),0.0053
12,USP19_O94966_258_NPGKDDCAK (UniProt O94966),-0.14
13,UGDH_O60701_8+9+20_KICCIGAGYVGGPTCSVIAHMCPEIR (UniProt O60701),0.221
14,UGP2_Q16851_276_CEFVMEVTNK (UniProt Q16851),-0.0851
15,USP19_O94966_1017_LEDKGDTPLELGDDCSLALVWR (UniProt O94966),-0.146
16,UBXN7_O94888_38_HMLEACNNNLEMAVTMFLDGGGIAEEPSTSSASVSTVRPHTEEEVRAPIPQK (UniProt O94888),-0.268
17,UPF2_Q9HAU5_990_LCNSLEESIR (UniProt Q9HAU5),-0.0292
18,USP47_Q96K76_656_MMDLEEVIPLDCCR (UniProt Q96K76),-0.201
19,UGDH_O60701_20_ICCIGAGYVGGPTCSVIAHMCPEIR (UniProt O60701),0.346

row,Target,probe-labelled cysteine peptide fold change
1,UNC119B_A6NIH7_85_VTENYLCKPEDNIYSIDFTR (UniProt A6NIH7),0.137
2,UBR7_Q8N806_319_LCTCQDCMK (UniProt Q8N806),-0.977
3,UHRF2_Q96PU4_297_IFLGGSEGTLNDCK (UniProt Q96PU4),0.188
4,USP3_Q9Y6I4_49_SPWVCLTCSSVHCGR (UniProt Q9Y6I4),-0.103
5,UPF1_Q92900_675_QLILVGDHCQLGPVVMCK (UniProt Q92900),-0.178
6,UCHL5_Q9Y5K5_9_TGNAGEWCLMESDPGVFTELIK (UniProt Q9Y5K5),0.0293
7,UGGT1_Q9NYU2_159_TCESDTLEALLLTASERPKPLLFK (UniProt Q9NYU2),-0.466
8,UGDH_O60701_288_DVLNLVYLCEALNLPEVAR (UniProt O60701),0.497
9,UPF3B_Q9BZI7_453_LCPPDDSTK (UniProt Q9BZI7),0.0744
10,USP19_O94966_102_EGACEDPHDLLATPTPELLLDWR (UniProt O94966),-0.135
11,USP37_Q86T82_538_AEELEYSCEK (UniProt Q86T82),-0.0626
12,UBR7_Q8N806_46_CSYSQGSVKR (UniProt Q8N806),-0.607
13,UBTD2_Q8WUN7_122_YQLPVYCLAPPINMIEEK (UniProt Q8WUN7),-0.198
14,UNC119_Q13432_190_NTCEHIYDFPPLSEELISEMIR (UniProt Q13432),-0.312
15,UHRF1BP1L_A0JNW5_618_HCPNCR (UniProt A0JNW5),-0.0428
16,UROS_P10746_119_IGLDTEGETCGNAEK (UniProt P10746),-0.0029
17,USP34_Q70CQ2_1330_KGEGVQLPASCLPPPQK (UniProt Q70CQ2),-0.0424
18,USP14_P54578_415_YEPFSFADDIGSNNCGYYDLQAVLTHQGR (UniProt P54578),0.157

# An excerpt of these results, tab-delimited.
row	Target	probe-labelled cysteine peptide fold change
19	UGDH_O60701_20_ICCIGAGYVGGPTCSVIAHMCPEIR (UniProt O60701)	0.346
5	UPF1_Q92900_675_QLILVGDHCQLGPVVMCK (UniProt Q92900)	-0.178
18	USP14_P54578_415_YEPFSFADDIGSNNCGYYDLQAVLTHQGR (UniProt P54578)	0.157
